The assay deals with T1, Flag-Rnd3 (UniProt P61588).
T1 sequence: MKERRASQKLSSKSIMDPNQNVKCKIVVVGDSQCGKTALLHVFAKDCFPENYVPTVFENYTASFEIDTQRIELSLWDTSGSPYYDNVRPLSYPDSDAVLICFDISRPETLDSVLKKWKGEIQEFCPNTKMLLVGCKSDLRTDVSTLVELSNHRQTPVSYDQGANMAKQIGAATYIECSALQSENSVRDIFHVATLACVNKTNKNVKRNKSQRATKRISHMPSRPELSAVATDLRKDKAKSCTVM
The assay can be described thus: affinity purification with mass spectrometry; anti-Flag immunoprecipitation from ECs treated with Ad-Flag-Rnd3 under oxLDL challenge; IgG as negative control; gel with silver staining; band below 63 kDa analysed by LC-MS/MS.

These are yes or no findings as the source states them, for the method shown. In cells and extracts the contact can be indirect. A yes stands for co-enrichment or nearness to the bait. Other partners may have been found. Tags and fused reporters may be left off the sequences shown.

B1: tumor necrosis factor receptor-associated factor 6 (endogenous, mouse aortic endothelial cells) (protein, UniProt P70196 1-530)
chain: MSLLNCENSCGSSQSSSDCCAAMAASCSAAVKDDSVSGSASTGNLSSSFMEEIQGYDVEFDPPLESKYECPICLMALREAVQTPCGHRFCKACIIKSIRDAGHKCPVDNEILLENQLFPDNFAKREILSLTVKCPNKGCLQKMELRHLEDHQVHCEFALVNCPQCQRPFQKCQVNTHIIEDCPRRQVSCVNCAVSMAYEEKEIHDQSCPLANIICEYCGTILIREQMPNHYDLDCPTAPIPCTFSVFGCHEKMQRNHLARHLQENTQLHMRLLAQAVHNVNLALRPCDAASPSRGCRPEDPNYEETIKQLESRLVRQDHQIRELTAKMETQSMYVGELKRTIRTLEDKVAEMEAQQCNGIYIWKIGNFGMHLKSQEEERPVVIHSPGFYTGRPGYKLCMRLHLQLPTAQRCANYISLFVHTMQGEYDSHLPWPFQGTIRLTILDQSEALIRQNHEEVMDAKPELLAFQRPTIPRNPKGFGYVTFMHLEALRQGTFIKDDTLLVRCEVSTRFDMGGLRKEGFQPRSTDAGV
Regarding B1, the binding result is “binds”.

These data come from publication PMC10518494.
